Here are results for 40 compounds from the supplement of paper PMC8426693.

This is one part of the list.

This assay deals with SARS-CoV-2 3_s2m RNA. In words: NMR binding call after quantification (hit when 2 of 3 NMR criteria are met) (binary (1 = binding, 0 = not binding)); higher = binding. The following applies: RNA concentration 10 µM; fragment concentration 200 µM; 293 K.
`CCS(=O)(=O)NCc1ccc2c(c1)OCO2`: the NMR binding call came out at 0.
The value for `Nc1ccc(S(=O)(=O)Nc2ccccn2)cc1` was 0; that for `Cc1cc(C(=O)NC(C)C)on1` was 0; that for `Cc1ccsc1CNC(C)(C)CO` was 0.
In turn, `Cc1nn(Cc2c(C)noc2C)c(=O)s1` came in with an NMR binding call of 0.
Regarding `CC(C)NC(=O)c1cc[nH]n1`, the NMR binding call amounted to 0.
In the case of `CC(C)NC(=O)N(C)Cc1cnn(C)c1` it was 0; in that of `CC(C)N1CCCC(CO)C1` (stereo not given), 0.
The value for `CC1COCCN1CCN` (stereo not given) was 0.
Consider `CC(C)(O)CNC1CCOCC1`, for which the NMR binding call came out at 0.
The value for `CC(=O)NCC1(c2ccccc2)CCOCC1` was 0; that for `CNC(=O)c1ccc(S(N)(=O)=O)cc1` was 0.
In turn, `CN(C)Cc1nc(C2(N)CCCC2)no1` displayed an NMR binding call of 0.
The value for `CC(O)CNCc1c(Cl)cccc1Cl` (stereo not given) was 0; that for `O=C(Nc1ccc(O)cc1)N1CCOCC1` was 0.
The value for `CC1CCCN(C(=O)CO)C1` (stereo not given) was 0; that for `CNc1ncc(C(F)(F)F)cc1Cl` was 0; that for `O=C(NCc1ccco1)NC1CCCCC1` was 0.
`CC(=O)Nc1ccc(CC(N)=O)cc1` gave an NMR binding call of 0.
The value for `NC(=O)N1CCN(C(=O)c2ccco2)CC1` was 0; that for `Cc1cnc(N2CCNCC2)s1.Cl.Cl` was 0; that for `O=C(c1c(F)cccc1F)N1CCCC1` was 0.
With `CC(Oc1ccc(-c2ccccc2)cc1)C(=O)O` (stereo not given), the NMR binding call is 0.
In the case of `Cl.O=C(O)CCN1CCCCC1` it was 0; in that of `CC(C)n1cc(C(=O)O)nn1`, 0.
In the case of `CN1CCN(c2ncccc2F)CC1=O`, the NMR binding call came to 0.
The value for `COc1cc(C(=O)O)cc(OC)c1OC` was 0.
Compound `Cc1csc(CNC(=O)C2CCC2)n1` returned an NMR binding call of 0.
The value for `CNC(=O)CN1CCNCC1` was 0; that for `Cc1cccc(NC(=O)CN2CCOCC2)c1C` was 0.
In the case of `O=C(Nc1ccc(F)cc1)Nc1ccc(F)cc1` it was 0; in that of `COc1ccc(C(=O)Nc2ccccc2F)cc1`, 0.
In the case of `O=C(c1c(F)cccc1F)N1CCCCCC1` it was 0; in that of `Cc1ccc(NC(=O)C2CCCO2)nc1` (stereo not given), 0.
As for `CC(=O)Nc1ccc(F)c(C(=O)O)c1`, the NMR binding call is 0.
In the case of `Nc1ccccc1OCc1ccccc1` it was 0; in that of `O=C(c1ccco1)N1CCN(C(=O)C2CC2)CC1`, 0; in that of `COc1ccc(C(=O)C2CCNCC2)cc1`, 0.
In the case of `Cc1nnc(CN2CCC=C(F)C2)s1` it was 0; in that of `NC(=O)c1ccc(OCc2ccccc2)cc1`, 0.
